Patent US20030156977A1, “Method for rapidly sterilizing a load” (priority 2000, published 2003)

Conditions: for -ln (Cf/Co) / Cf, final concentration of hydrogen peroxide / Cf/Co / Area under C versus t curve: 8.6 mg/L H2O2 injected, 6 trays, 20 min pre-plasma; for Area under C versus t curve: from time of maximum concentration
Procedure: The pressure inside the chamber was also monitored as a function of time. After the completion of the sterilization cycle, the chamber was vented, the equipment was removed, and the inoculated coupons were tested for growth in the medium. […] The sterilization results and the summary of the various methods of analyzing the hydrogen concentration data are shown in Table 2 below.
The data were analyzed in various ways to determine whether a method could be found to quickly determine the suitability of the load for sterilization.
FIGS. 5-8 show graphs of ln(c/c0) versus time for a validation load (FIG. 5), a heavy load (FIG. 6), a heavy load with a new towel (FIG. 7), and a heavy load with an old towel (FIG. 8).
The initial slopes in Table 2 are recorded as the negative of the initial slopes for simplicity in recording the data.
The final concentration is measured at the end of the diffusion step 50, prior to evacuating and generating the post-injection plasma.

[1] = Group 3: heavy load, 1 new towel
[2] = Group 3: heavy load, 2 new towels
[3] = Group 4: heavy load, 1 old towel

In the case of `OO` [hydrogen peroxide], the “Average final concentration of hydrogen peroxide” value (Group 1 validation loads) is reported as 0.92 mg/L, the “Average area under the curve” value (Group 1 validation runs) is reported as 512 mg·s/L and the “-ln (Cf/Co)” value (Group 2: heavy load, 1 filter) is reported as 2.05. The “Cf, final concentration of hydrogen peroxide” value (shortened to “Cf, final concentration”) (Group 2: heavy load, 1 filter) was 0.50 mg/L, the Cf/Co (Group 2: heavy load, 1 filter) was 0.13 and the “Area under C versus t curve” value (Group 2: heavy load, 1 filter) was 392 mg·s/L. For the same molecule, the “-ln (Cf/Co)” value (Group 2: heavy load, 2 filters) was 2.22, the “Cf, final concentration” value (Group 2: heavy load, 2 filters) was 0.46 mg/L and the Cf/Co (Group 2: heavy load, 2 filters) was 0.11. The “Area under C versus t curve” value (Group 2: heavy load, 2 filters) was 373 mg·s/L, the “-ln (Cf/Co)” value (Group 2: heavy load, brass) was 1.80 and the “Cf, final concentration” value (Group 2: heavy load, brass) was 0.51 mg/L. The Cf/Co (Group 2: heavy load, brass) was 0.16, the “Area under C versus t curve” value (Group 2: heavy load, brass) was 364 mg·s/L and the “-ln (Cf/Co)” value (Group 2: heavy load, mat) was 2.11 and 2.06. The “Cf, final concentration” value (Group 2: heavy load, mat) was 0.47 mg/L and 0.49 mg/L, the Cf/Co (Group 2: heavy load, mat) was 0.12 and 0.13 and the “Area under C versus t curve” value (Group 2: heavy load, mat) was 429 mg·s/L and 439 mg·s/L. The “-ln (Cf/Co)” value (Group 2: heavy load) was 2.12, the “Cf, final concentration” value (Group 2: heavy load) was 0.46 mg/L and the Cf/Co (Group 2: heavy load) was 0.12. For the same molecule, the “Area under C versus t curve” value (Group 2: heavy load) was 398 mg·s/L, the “Final concentration of hydrogen peroxide, range over runs” value (Group 2 heavy load runs (all variants)) was 0.46 to 0.51 mg/L and the “Average area under the curve” value (Group 2 heavy loads) was 399 mg·s/L. For the same molecule, the “Average final concentration of hydrogen peroxide” value (Group 2 heavy loads) was 0.48 mg/L, the “-ln (Cf/Co)” value [1] was 3.14 and the “Cf, final concentration” value [1] was 0.12 mg/L. The Cf/Co [1] was 0.04, the “Area under C versus t curve” value [1] was 156 mg·s/L and the “-ln (Cf/Co)” value [2] was 3.48. The “Cf, final concentration” value [2] was 0.08 mg/L, the Cf/Co [2] was 0.03 and the “Area under C versus t curve” value [2] was 129 mg·s/L. The “-ln (Cf/Co)” value (Group 3: heavy load, 6/8 towel) was 2.59, the “Cf, final concentration” value (Group 3: heavy load, 6/8 towel) was 0.24 mg/L and the Cf/Co (Group 3: heavy load, 6/8 towel) was 0.08. For the same molecule, the “Area under C versus t curve” value (Group 3: heavy load, 6/8 towel) was 246 mg·s/L, the “Final concentrations of hydrogen peroxide, range over runs” value (Group 3 and Group 4 runs with heavy loads and towels) was 0 to 0.24 mg/L and the “Average area under the curve” value (Group 3 heavy loads with a new towel) was 177 mg·s/L. The “-ln (Cf/Co)” value [3] was 7.71 and 6.94, the “Area under C versus t curve” value [3] was 76 mg·s/L and 118 mg·s/L and the “Average area under the curve” value (Group 4 heavy loads with old towels) was 97 mg·s/L.

Where “and” joins values, the source holds several entries; their conditions need not be identical. Equal entries are not always repeated. Where two headings read alike, the source gives them in different places.
